These results are taken from the supplement of paper PMC6411743.

± gives the standard deviation of the averaged measurements. This is one part of the list.

The experiment deals with T1, UniProt P23381 and related entries.
T1 sequence (whole entry): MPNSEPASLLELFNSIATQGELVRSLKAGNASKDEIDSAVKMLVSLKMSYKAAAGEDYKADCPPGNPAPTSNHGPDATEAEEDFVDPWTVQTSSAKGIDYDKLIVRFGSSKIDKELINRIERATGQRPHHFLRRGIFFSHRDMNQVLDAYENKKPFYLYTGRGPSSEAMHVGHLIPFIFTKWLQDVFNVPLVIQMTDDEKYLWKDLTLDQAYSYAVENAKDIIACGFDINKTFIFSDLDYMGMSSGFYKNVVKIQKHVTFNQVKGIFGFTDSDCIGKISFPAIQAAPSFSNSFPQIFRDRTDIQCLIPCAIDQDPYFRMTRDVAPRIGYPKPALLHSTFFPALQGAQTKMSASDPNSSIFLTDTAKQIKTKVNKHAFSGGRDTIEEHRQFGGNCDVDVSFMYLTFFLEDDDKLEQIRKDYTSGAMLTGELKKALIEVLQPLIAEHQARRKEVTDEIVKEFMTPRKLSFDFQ
Briefly: NP40-soluble protein abundance relative to vehicle (solubility fold change) (ratio); higher = more soluble protein in presence of GTP. On the procedure:
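Solubility proteome profiling in Jurkat crude lysate. Lysate was treated with Mg-GTP (0.1-10 mM) for 10 min at room temperature and 3 min at 37 °C, then solubilised with 0.8% NP40 and benzonase, followed by ultracentrifugation. Proteins were quantified by TMT10 LC-MS/MS; the value is the NP40-soluble abundance relative to the NP40-processed vehicle, from 3 independent experiments.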

In the case of `Nc1nc2c(ncn2[C@@H]2O[C@H](COP(=O)(O)OP(=O)(O)OP(=O)(O)O)[C@@H](O)[C@H]2O)c(=O)[nH]1` [guanosine triphosphate], the NP40-soluble protein abundance is, setting by setting: (concentration: 0.1mM) 0.985 ± 0.024; (concentration: 0.5mM) 1 ± 0.045; (concentration: 1mM) 0.979 ± 0.016; (concentration: 2mM) 0.963 ± 0.027; (concentration: 4mM) 0.946 ± 0.047; (concentration: 6mM) 0.928 ± 0.026. In addition, the NP40-soluble protein abundance is 0.932 ± 0.047 (concentration: 8mM) and 0.901 ± 0.055 (concentration: 10mM).
